Results are given in words; binding and its absence hold for the method and conditions named. In cells and extracts the contact can be indirect. Some binding calls cover weakened binding; strength is not graded here.
T1: ATF4 bZIP TAP construct (mouse) (UniProt Q06507)
T1 sequence: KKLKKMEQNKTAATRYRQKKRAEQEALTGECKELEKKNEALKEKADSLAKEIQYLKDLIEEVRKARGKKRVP


Target: T1, ATF4 bZIP TAP construct (mouse)
Assay: co-IP; one-step pulldown with anti-FLAG magnetic beads from pooled extracts of mouse TA muscles (12 mice) expressing the ATF4 bZIP TAP construct or the empty TAP construct, SDS-PAGE and immunoblot of endogenous proteins

binding | Molecule
binds | MAF/c-Maf (from UniProt P54843-1 1-370)
binds | C/EBPδ (protein, UniProt Q00322 1-268) MSAALFSLDSPVRGTPWPTEPAAFYEPGRVDKPGRGPEPGDLGELGSTTPAMYDDESAIDFSAYIDSMAAVPTLELCHDELFADLFNSNHKAAGAGGLELLQGGPTRPPGVGSVARGPLKREPDWGDGDAPGSLLPAQVAVCAQTVVSLAAAAQPTPPTSPEPPRGSPGPSLAPGTVREKGAGKRGPDRGSPEYRQRRERNNIAVRKSRDKAKRRNQEMQQKLVELSAENEKLHQRVEQLTRDLAGLRQFFKKLPSPPFLPPTGADCR
binds | leucine zipper protein 1 (LUZP1) (protein, UniProt Q8R4U7 1-1068) MAELTNYKDAASNRHLRFKLQSLSRRLDELEEATKNLQRAEDELLDLQDKVIQAEGSDSSTLAEIEVLRQRVLKIEGKDEEIKRAEDLCHTMKEKLEEEENLTRELKSEIERLQKRMVDLEKLEEALSRSKNECSQLCLSLNEERNLTKKISSELEMLRVKVKELESSEDRLDKTEQSLVSELEKLKSLTLSFVNERKYLNEKEKENEKIIKELTQKLEQNKKMNRDHMRNASTFLERNDLRIEDGISSTLSSKESKRKGSLDYLKQVENETRDKSENEKNRNQEDNKVKDLNQEIEKLKTQIKHFESLEEELKKMRAKNNDLQDNYLTELNRNRSLASQLEEIKLQVRKQKELGNGDIEGEDAFLLGRGRHERTKLKGHGSEASVSKHTSRELSPQHKRERLRNREFALSNEHYSLSSKQASSPVFTNKRAAKASNMGMGTDSGTQETKRTEDRFAPGSSHSEGKRGREQPSVLSRYPPAAQEHTKVWKGAPKPGTESGLKGKVEKTTRTFSDSTHVSVPNDIVGKGDKTSDLSSEAHCGKRGQVPGHASQGTQAVESSCSKAIGALSSSQKASSEGLSKGKKTANGLAADANFSNSKAPILSKYPYSSRSQENILQGFSLPNKEGVDQPVAVVMEDSSQHEALRCRVIKSSGREKPDSDDDLDIESFVTAKLVNTTITPEPEPKPQPNSREKVKSRGGTRTALFENDKNAAIENDSVKPTRPSSNAIEFPDANCAGVKNQRPFSPREALRSRAIIKPVIIDKDVKKIMGGSGTEVVLEKQKSTSKSVTSKVTSSITIYPSDSSGPRAVPSEAPRERHTSTSNIQVGPPELTAISNHVSSPLELSIHKHDITLQLTEAERVGDGSPKNRAEMVVSRSSILIKPSESVEKNSHVPPAETIRWKSHSASSDSRHITVRNAWKSKRDLKCSEDPPTGIGRNMEATNAYTQRPCTDFLELEQPRSQPSEQGARRVGNSGDAPELSPRRTQSSLTASEVLTRRDRMGGAITAASCNHSSSMEEGEDSTFVTSRRIHNPLEHSELPGKQGLPEPEPVWTEERLHPAKPYAEED

Source: article PMC7049960
